Source: the supplement of paper PMC6411743
± gives the standard deviation of the averaged measurements. This is a selection; strong and weak results do not stand in their true shares.

Experiments:
Assay in all cases: NP40-soluble protein abundance relative to vehicle (solubility fold change) (ratio); higher = more soluble protein in presence of AMP-PNP
[1] = target: T1, UniProt Q6UX04
T1 sequence (whole entry): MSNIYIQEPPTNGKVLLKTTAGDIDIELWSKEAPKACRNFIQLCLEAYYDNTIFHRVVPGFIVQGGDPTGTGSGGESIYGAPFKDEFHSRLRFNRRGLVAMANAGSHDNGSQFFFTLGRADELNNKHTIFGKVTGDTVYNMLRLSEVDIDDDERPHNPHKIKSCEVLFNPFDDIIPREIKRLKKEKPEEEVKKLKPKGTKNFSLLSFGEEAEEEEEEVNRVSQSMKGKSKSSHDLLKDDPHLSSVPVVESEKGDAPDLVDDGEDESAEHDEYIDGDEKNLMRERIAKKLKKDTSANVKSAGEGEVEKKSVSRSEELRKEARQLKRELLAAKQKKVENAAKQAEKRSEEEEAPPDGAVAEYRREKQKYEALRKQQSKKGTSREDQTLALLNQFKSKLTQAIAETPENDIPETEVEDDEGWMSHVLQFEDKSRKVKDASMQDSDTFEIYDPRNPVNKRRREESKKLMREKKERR
Method in brief: (§1)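 Crude Jurkat lysate, prepared by Dounce homogenisation, was exposed to eight concentrations from 0.1 to 10 mM for 10 min at room temperature and then 3 min at 37 °C. Solubilisation used 0.8% NP40 with benzonase for 60 min at 4 °C, followed by ultracentrifugation and TMT labelling of the supernatant for LC-MS/MS. After vsn normalisation of intensities, each value is the fold change against the detergent-processed vehicle within each replicate, across three independent experiments.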

[2] = target: T2, UniProt Q7L8W6
T2 sequence (whole entry): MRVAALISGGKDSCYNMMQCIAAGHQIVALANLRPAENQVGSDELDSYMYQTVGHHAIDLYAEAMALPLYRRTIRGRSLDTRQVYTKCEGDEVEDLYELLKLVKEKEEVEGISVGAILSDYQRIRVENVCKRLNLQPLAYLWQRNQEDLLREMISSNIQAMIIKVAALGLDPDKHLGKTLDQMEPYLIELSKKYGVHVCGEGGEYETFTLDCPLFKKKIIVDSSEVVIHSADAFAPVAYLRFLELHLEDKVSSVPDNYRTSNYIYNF
Method in brief: as §1

[3] = target: T3, UniProt Q7Z3K3 and related entries
T3 sequence (whole entry): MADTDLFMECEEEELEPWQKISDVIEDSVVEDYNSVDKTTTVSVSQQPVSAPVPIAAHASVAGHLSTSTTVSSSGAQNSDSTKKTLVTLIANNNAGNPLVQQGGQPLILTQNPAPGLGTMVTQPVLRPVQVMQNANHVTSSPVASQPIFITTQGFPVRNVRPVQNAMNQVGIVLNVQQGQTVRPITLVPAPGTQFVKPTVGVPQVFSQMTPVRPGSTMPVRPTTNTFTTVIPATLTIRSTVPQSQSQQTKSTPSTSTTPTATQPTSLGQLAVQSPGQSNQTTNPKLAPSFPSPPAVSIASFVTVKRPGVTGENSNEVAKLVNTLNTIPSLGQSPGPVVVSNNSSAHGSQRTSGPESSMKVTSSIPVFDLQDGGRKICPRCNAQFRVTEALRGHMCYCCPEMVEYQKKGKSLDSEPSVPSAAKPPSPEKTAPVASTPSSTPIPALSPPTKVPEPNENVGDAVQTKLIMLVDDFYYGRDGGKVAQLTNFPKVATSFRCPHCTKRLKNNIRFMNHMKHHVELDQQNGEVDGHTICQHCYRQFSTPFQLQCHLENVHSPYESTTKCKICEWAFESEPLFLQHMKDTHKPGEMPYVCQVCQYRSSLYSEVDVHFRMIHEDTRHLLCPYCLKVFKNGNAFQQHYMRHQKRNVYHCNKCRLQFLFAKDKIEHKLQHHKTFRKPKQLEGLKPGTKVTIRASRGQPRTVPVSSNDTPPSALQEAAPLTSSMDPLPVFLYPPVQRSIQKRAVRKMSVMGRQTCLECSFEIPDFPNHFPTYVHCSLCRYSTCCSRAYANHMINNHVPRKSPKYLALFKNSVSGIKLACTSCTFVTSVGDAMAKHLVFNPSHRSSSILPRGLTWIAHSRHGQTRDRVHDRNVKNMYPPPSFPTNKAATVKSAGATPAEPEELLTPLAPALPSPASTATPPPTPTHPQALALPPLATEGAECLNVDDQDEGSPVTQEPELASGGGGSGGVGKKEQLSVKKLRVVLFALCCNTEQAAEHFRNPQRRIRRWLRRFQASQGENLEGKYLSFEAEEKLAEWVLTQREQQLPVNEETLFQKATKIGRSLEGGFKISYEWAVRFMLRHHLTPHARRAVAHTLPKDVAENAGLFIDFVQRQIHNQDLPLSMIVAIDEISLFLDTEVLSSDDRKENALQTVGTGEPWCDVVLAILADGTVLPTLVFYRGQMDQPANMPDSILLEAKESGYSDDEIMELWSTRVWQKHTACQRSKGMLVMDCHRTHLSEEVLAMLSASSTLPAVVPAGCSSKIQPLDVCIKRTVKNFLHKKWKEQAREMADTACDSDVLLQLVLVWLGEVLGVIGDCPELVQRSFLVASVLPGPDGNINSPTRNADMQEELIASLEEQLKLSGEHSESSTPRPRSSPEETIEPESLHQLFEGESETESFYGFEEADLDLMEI
Method in brief: as §1

[4] = target: T4, UniProt Q7Z412 and related entries
T4 sequence (whole entry): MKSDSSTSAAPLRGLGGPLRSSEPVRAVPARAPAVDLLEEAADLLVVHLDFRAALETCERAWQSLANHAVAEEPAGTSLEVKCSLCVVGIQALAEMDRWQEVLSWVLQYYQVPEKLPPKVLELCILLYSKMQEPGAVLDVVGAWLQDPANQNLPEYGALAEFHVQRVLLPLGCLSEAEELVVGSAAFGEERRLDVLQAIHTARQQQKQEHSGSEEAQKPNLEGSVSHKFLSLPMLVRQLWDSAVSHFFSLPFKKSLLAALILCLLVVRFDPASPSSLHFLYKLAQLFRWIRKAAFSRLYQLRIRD
Method in brief: as §1

[5] = target: T5, UniProt Q7Z4H3 and related entries
T5 sequence (whole entry): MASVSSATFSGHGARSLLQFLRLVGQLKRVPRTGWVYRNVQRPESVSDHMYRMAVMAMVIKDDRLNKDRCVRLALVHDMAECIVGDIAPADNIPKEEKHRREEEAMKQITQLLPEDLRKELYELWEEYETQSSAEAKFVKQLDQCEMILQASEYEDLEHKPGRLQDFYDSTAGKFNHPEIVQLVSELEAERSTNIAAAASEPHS
Method in brief: as §1

Nc1ncnc2c1ncn2[C@@H]1O[C@H](COP(=O)(O)OP(=O)(O)NP(=O)(O)O)[C@@H](O)[C@H]1O [adenylyl imidodiphosphate]
NP40-soluble protein abundance ([1]; concentration: 1mM): 1.06 ± 0.028 | NP40-soluble protein abundance ([1]; concentration: 2mM): 1.09 ± 0.057 | NP40-soluble protein abundance ([1]; concentration: 4mM): 1.02 ± 0.014 | NP40-soluble protein abundance ([1]; concentration: 6mM): 1.05 ± 0.051 | NP40-soluble protein abundance ([1]; concentration: 8mM): 1.02 ± 0.036 | NP40-soluble protein abundance ([1]; concentration: 10mM): 1.03 ± 0.028 | NP40-soluble protein abundance ([2]; concentration: 1mM): 0.964 ± 0.013 | NP40-soluble protein abundance ([2]; concentration: 2mM): 0.944 ± 0.059 | NP40-soluble protein abundance ([2]; concentration: 4mM): 0.967 ± 0.037 | NP40-soluble protein abundance ([2]; concentration: 6mM): 0.988 ± 0.018 | NP40-soluble protein abundance ([2]; concentration: 8mM): 0.995 ± 0.017 | NP40-soluble protein abundance ([2]; concentration: 10mM): 0.9622 ± 0.0073 | NP40-soluble protein abundance ([3]; concentration: 1mM): 1.06 ± 0.011 | NP40-soluble protein abundance ([3]; concentration: 2mM): 1.1 ± 0.02 | NP40-soluble protein abundance ([3]; concentration: 4mM): 1.177 ± 0.0098 | NP40-soluble protein abundance ([3]; concentration: 6mM): 1.23 ± 0.034 | NP40-soluble protein abundance ([3]; concentration: 8mM): 1.26 ± 0.037 | NP40-soluble protein abundance ([3]; concentration: 10mM): 1.32 ± 0.063 | NP40-soluble protein abundance ([4]; concentration: 1mM): 1.05 ± 0.022 | NP40-soluble protein abundance ([4]; concentration: 2mM): 1.09 ± 0.025 | NP40-soluble protein abundance ([4]; concentration: 4mM): 1.06 ± 0.053 | NP40-soluble protein abundance ([4]; concentration: 6mM): 1.05 ± 0.055 | NP40-soluble protein abundance ([4]; concentration: 8mM): 1.03 ± 0.038 | NP40-soluble protein abundance ([4]; concentration: 10mM): 1.06 ± 0.039 | NP40-soluble protein abundance ([5]; concentration: 1mM): 0.96 ± 0.09 | NP40-soluble protein abundance ([5]; concentration: 2mM): 1.05 ± 0.017 | NP40-soluble protein abundance ([5]; concentration: 4mM): 0.951 ± 0.12 | NP40-soluble protein abundance ([5]; concentration: 6mM): 0.89 ± 0.039 | NP40-soluble protein abundance ([5]; concentration: 8mM): 0.878 ± 0.044 | NP40-soluble protein abundance ([5]; concentration: 10mM): 0.824 ± 0.081
